The list shows a part of the results. Shown are side measurements of this screen, not its main read-out; they come without a call. Compounds called inactive in the main read-out are mostly missing here. Potencies come from curve fits of mixed quality, noted in brackets.
Assay: qHTS Assay to Find Inhibitors of Chronic Active B-Cell Receptor Signaling
Conditions: ABC-DLBCL IkBa-CBG/CBR reporter, luminescence ratio (green luciferase fused to IkBa over red control in TMD8 lymphoma cells), 4 h
How it was run: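 Compounds up to 46 uM were incubated four hours with TMD8 cells whose green CBG68 luciferase is fused to IkappaBalpha; red CBR luminescence normalised the signal, and concentration-effect curves were fitted to fusion, red and ratio data.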

[1] = measured here: IkBa-CBG green luminescence
[2] = measured here: CBR red luminescence, cell number

Row | SMILES | AC50 [1] | AC50 [2]
1 | O=C(/C=C\c1ccccc1OC(=O)c1ccccc1F)c1cc2ccccc2o1 | 20.6 µM [falling, single point] | 
2 | COc1ccccc1NC(CC(=O)c1ccccc1)C(=O)OCC(=O)c1ccc(F)cc1 (configuration not stated) |  | 14.6 µM [falling, partial curve, poor fit]
3 | COc1ccc(OC)c(-n2c(SCC(=O)NCc3ccco3)nnc2-c2c[nH]c3ccccc23)c1 |  | 14.1 µM [falling, single point]
4 | CN(C)CCCN(C(=O)c1ccco1)c1nc2ccc(Br)cc2s1 |  | 22.4 µM [falling, single point]
5 | N#Cc1cc2c(nc1SCC(O)CS(=O)(=O)Cc1ccccc1)CCCC2 (configuration not stated) |  | 29.1 µM [falling, single point]
6 | COc1ccc(NC(=O)Oc2cc(C)ccc2C(C)C)cc1 |  | 14.1 µM [rising, single point]
7 | CC(=O)c1ccc(NC(=O)CSC(=S)N2CCCC2)cc1 |  | 17.8 µM [falling, partial curve]
8 | CC(C)(C)c1ccc(C(=O)Nc2cccc3ncccc23)cc1 |  | 2.51 µM [falling, full curve, poor fit]
9 | Cn1cccc1/C=N/NC(=O)c1sc2ccccc2c1Cl |  | 1 µM [falling, full curve, poor fit]
10 | COc1ccccc1-n1c(SCC(=O)O)nc2c(sc(=S)n2-c2ccc(C)c(C)c2)c1=O |  | 15.8 µM [falling, single point]
11 | Cc1ccc(CCNC(=O)c2ccc(CNS(=O)(=O)c3ccc(C)cc3)cc2)cc1 |  | 6.31 µM [rising, partial curve]
12 | COC(=O)[C@@H]1C[C@H]2CC[C@H](O)C[C@H]2N1Cc1ccccc1OC(=O)c1cccs1 |  | 31.6 µM [rising, single point]
13 | Cc1cc(C)nc(/N=C2\NC(=O)CC(C(=O)O)N2c2ccc(Cl)cc2)n1 (configuration not stated) | 32.6 µM [rising, partial curve, poor fit] | 29.1 µM [falling, single point]
14 | O=C(NCc1ccccn1)Nc1ccc2c(c1)OCO2 |  | 16.4 µM [falling, partial curve, poor fit]
15 | Fc1ccccc1CNC(=S)Nc1cccc(C(F)(F)F)c1 |  | 25.9 µM [falling, single point]
16 | Cc1ccccc1C(=O)Nc1cccc(C(=O)N/N=C/c2ccc3c(c2)OCO3)c1 |  | 1.78 µM [falling, partial curve]
17 | O=C(CCN1CCCCC1c1cccnc1)NCc1ccccc1 (configuration not stated) |  | 29.1 µM [rising, single point]
18 | O=C(O)CCC(=O)N1N=C(c2ccccc2)CC1c1ccc2nccnc2c1 (configuration not stated) |  | 20.6 µM [rising, single point]
19 | c1ccc(-c2ccc(-c3cn4c(n3)CCC4)cc2)cc1 |  | 8.2 µM [falling, partial curve, poor fit]
20 | OCCN(CCO)c1ccc(C(c2ccc(Cl)cc2)c2ccc(N(CCO)CCO)cc2Cl)c(Cl)c1 | 20.6 µM [rising, partial curve, poor fit] | 29.1 µM [falling, single point]

Record cards, from the list above:
COc1ccccc1NC(CC(=O)c1ccccc1)C(=O)OCC(=O)c1ccc(F)cc1 (configuration not stated) is listed with AC50 [2]: 14.6 µM [falling, partial curve, poor fit]
CN(C)CCCN(C(=O)c1ccco1)c1nc2ccc(Br)cc2s1 is listed with AC50 [2]: 22.4 µM [falling, single point]

Following part:

Row | SMILES | AC50 [1] | AC50 [2]
21 | Cn1nc(C(=O)Nc2cccc(C(F)(F)F)c2)ccc1=O |  | 1.03 µM [rising, full curve, poor fit]
22 | O=C(Cn1c(=O)cnc2ccccc21)Nc1cccc(S(=O)(=O)N2CCCCC2)c1 |  | 20.6 µM [falling, partial curve]
23 | COc1cccc(-c2cc(C(=O)Nc3ccc4c(c3)OCO4)no2)c1 |  | 1.26 µM [falling, partial curve, poor fit]
24 | CC1CCc2nc(NC(=O)c3ccco3)sc2C1 (configuration not stated) |  | 10.3 µM [falling, partial curve]
25 | Cc1ccc(NC(=O)c2ccc(COc3ccccc3[N+](=O)[O-])o2)nc1 |  | 1.46 µM [falling, full curve]
26 | Cc1ccc(-c2cc(C(F)F)nc(NCc3cccs3)n2)cc1 |  | 18.4 µM [rising, single point]
27 | COc1ccccc1-c1c(C#N)c(N)nc2c1CCc1ccccc1-2 |  | 3.66 µM [falling, single point]
28 | CC(C)CC(C(=O)Nc1oc(-c2ccccc2)c(-c2ccccc2)c1C#N)N1C(=O)c2ccccc2C1=O (configuration not stated) |  | 6.51 µM [falling, full curve]
29 | Cc1ccccc1OCC(=O)Nc1nc(-c2ccncc2)cs1 |  | 14.6 µM [falling, partial curve]
30 | Cc1cc2nc3c(c(=O)n2[nH]1)CCCC3 |  | 29.1 µM [rising, single point]
31 | COc1ccc(C2=NN3C(C2)c2ccccc2OC3c2cccs2)cc1 (configuration not stated) |  | 25.1 µM [falling, single point]
32 | OCC[C@@H]1C[C@@H](O)[C@H](O)[C@]2(CCc3ccccc3CO2)O1 |  | 12.6 µM [rising, partial curve, poor fit]
33 | O=c1c2sccc2nc(SCc2cc(=O)n3ccccc3n2)n1-c1ccc(Br)cc1 |  | 0.00517 µM [rising, full curve, poor fit]
34 | O=C(NCC(c1ccco1)N1CCN(c2ccc(F)cc2)CC1)C(=O)NC1CCCCC1 (configuration not stated) |  | 9.2 µM [falling, partial curve]
35 | CCOc1cc(C(c2c(C)[nH][nH]c2=O)c2c(C)[nH][nH]c2=O)cc(Cl)c1O |  | 10 µM [falling, partial curve, poor fit]
36 | Cc1ccccc1NC(=O)CN1CCC(NC(=O)Nc2ccccc2)CC1 |  | 16.4 µM [rising, single point]
37 | O=S(=O)(c1ccccc1)N1N=C(c2ccc(O)cc2)CC1c1ccco1 (configuration not stated) |  | 12.6 µM [falling, partial curve, poor fit]
38 | COc1cc(/C=C/C(=O)OCC(=O)NC2CCCCCCC2)ccc1O |  | 1.16 µM [rising, partial curve, poor fit]
39 | Cc1cccc(NC(=O)C(=O)NCCCc2ccccc2)c1 |  | 20.6 µM [falling, partial curve]
40 | COc1ccc(C2c3ccc4ccccc4c3Oc3ncn(CCCO)c(=N)c32)cc1OC (configuration not stated) | 11.2 µM [falling, partial curve, poor fit] | 

Source: PubChem BioAssay AID493014 (National Center for Advancing Translational Sciences (NCATS), 2011)
